Measured values published in PubChem BioAssay AID2685 (National Center for Advancing Translational Sciences (NCATS), 2010).
This is one part of the list. The main result of the screen is listed elsewhere. These columns were measured beside it and carry no call. The list favours compounds with an active or inconclusive main result. Words in brackets tell the shape of the fitted curve; partial curves, single points and poor fits give uncertain potencies.

Assay: qHTS Assay for Lipid Storage Modulators in Drosophila S3 Cells;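 as to cell number change: cells counted by Cell Tracker Red CMTPX staining in the red channel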
Settings: BODIPY lipid droplet fluorescence, 18-24 h; for cell number change: measured here: cell count max response, cells fed with added oleic acid
How it was run: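 Drosophila S3 cells got compounds at several concentrations plus oleic acid (400 uM solution). Laser-scanning cytometry with 488 nm excitation read lipid droplets at 500-530 nm and cells at 575-640 nm. Percent activity was relative to 20 uM Triacsin C.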

[1] = measured here: lipid fluorescence (Fed channel) AC50, cells fed with added oleic acid
[2] = measured here: cell number channel AC50, cells fed with added oleic acid

Compound | cell number change [%] | AC50 [1] | AC50 [2]
C/C(=N\NC(=O)CSCc1ccccc1Br)c1cccc([N+](=O)[O-])c1 | 28.1 | 1.64 µM [rising, full curve] | 
COc1ccc(CCNC(=O)c2ccccc2NC(=O)CN2CCN(c3ccccc3O)CC2)cc1 |  | 4.11 µM [falling, partial curve, poor fit] | 
Clc1cccc2c3c([nH]c12)CCNC3 | -4.23 |  | 6.51 µM [rising, single point]
CCOC(=O)C(Cc1ccccc1)c1ccnc2nc(N)nn12 (stereo not drawn) |  |  | 0.708 µM [rising, single point]
CCOC(=O)C(NC(=O)CC)(Nc1sc(C)c(CC)c1C#N)C(F)(F)F (stereo not drawn) |  | 5.8 µM [rising, partial curve] | 0.82 µM [rising, single point]
CC(Oc1ccccc1)C(=O)N1CCN(c2ncccn2)CC1 (stereo not drawn) | 1.35 | 4.11 µM [falling, single point] | 
CCOC(=O)c1c(NC(=O)C(=O)N/N=C/c2ccc(OCC)cc2)sc2c1CCCCC2 | 11.3 | 1.03 µM [rising, partial curve] | 
O=C(Nc1ccc(Cc2ccncc2)cc1)C1CCC(N2C(=O)C3C4C=CC(C5CC45)C3C2=O)CC1 (stereo not drawn) | -7.98 |  | 0.0731 µM [rising, full curve, poor fit]
C=CCn1c(SCC(=O)c2c(N)n(C)c(=O)n(C)c2=O)nnc1-c1ccccc1F |  | 0.146 µM [rising, full curve, poor fit] | 0.411 µM [rising, full curve]
CCN(CC)c1ccc(NC(=O)c2cc(Cl)ccc2OC)cc1 | 6.9 | 4.11 µM [rising, partial curve] | 
Oc1ccc(CN2CCCCC2)c2cccnc12 | -51.3 | 29.1 µM [falling, single point] | 32.6 µM [falling, single point]
COc1ccc(C(C(=O)NCC2CCCO2)N(Cc2cccs2)C(=O)c2snc(C(N)=O)c2N)cc1 (stereo not drawn) | -36.8 |  | 
C=CCn1c2ccccc2c2nnc(SCc3[nH]c(=O)[nH]c3C(=O)CCCCC(=O)OCC)nc21 | -17.2 |  | 
COc1ccccc1NC(=O)CSc1nnc(-c2ccco2)n1Cc1ccco1 |  | 5.17 µM [rising, single point] | 5.17 µM [rising, single point]
COc1ccccc1CNc1cc(CSc2ccc(Cl)cc2)nc(C)n1 |  | 6.51 µM [rising, single point] | 1.84 µM [rising, partial curve]
N#CC(=C1CCCC1)c1nc(-c2ccccc2)cs1 | 0.768 | 29.1 µM [rising, single point] | 
O=c1[nH]nc(SCCS(=O)(=O)c2ccc(F)cc2)n1-c1ccc2c(c1)OCCO2 | -54.8 | 29.1 µM [falling, single point] | 29.1 µM [falling, single point]
CC(NC(=O)/C(=C/c1ccc2c(c1)OCO2)NC(=O)c1cccc([N+](=O)[O-])c1)C(=O)O (stereo not drawn) | 11.4 | 0.58 µM [rising, partial curve, poor fit] | 0.651 µM [rising, full curve, poor fit]
CNC(=O)Nc1ccccc1C(=O)NCc1ccccc1 | 53.7 | 6.51 µM [falling, single point] | 29.1 µM [rising, single point]

Some values from the list:
Entry for COc1ccccc1CNc1cc(CSc2ccc(Cl)cc2)nc(C)n1 under AC50 [1]: 6.51 µM [rising, single point]
Entry for C=CCn1c2ccccc2c2nnc(SCc3[nH]c(=O)[nH]c3C(=O)CCCCC(=O)OCC)nc21 under cell number change [%]: -17.2
Entry for CC(Oc1ccccc1)C(=O)N1CCN(c2ncccn2)CC1 (stereo not drawn) under AC50 [1]: 4.11 µM [falling, single point]
Entry for COc1ccc(CCNC(=O)c2ccccc2NC(=O)CN2CCN(c3ccccc3O)CC2)cc1 under AC50 [1]: 4.11 µM [falling, partial curve, poor fit]

Following part.

Compound | cell number change [%] | AC50 [1] | AC50 [2]
CCOc1ccc(OCc2ccc(C(=O)OCc3ccccn3)o2)cc1 | 1.4 | 1.16 µM [rising, full curve, poor fit] | 
Cc1ccccc1/C=C/c1cccc[n+]1C | -0.351 | 6.51 µM [rising, single point] | 0.651 µM [rising, single point]
COc1ccc(CCC(=O)N2CCN(S(=O)(=O)c3cccs3)CC2)cc1 | 14.1 |  | 
CCOc1ccc(C(=O)Nc2ccc3c(c2)OCCO3)cc1OC | -7.94 | 1.84 µM [rising, partial curve] | 
CN(Cc1ccccc1)C(=O)Nc1ccccc1 | -11.8 | 3.26 µM [rising, single point] | 
COc1ccc(-n2nccc2-c2nn(-c3cccc(OC)c3)c(=O)n(C)c2=O)cc1 |  |  | 5.17 µM [rising, single point]
NS(=O)(=O)c1ccc(NC(=O)c2ccc3nccnc3c2)cc1 | -18.6 | 18.4 µM [falling, single point] | 0.00461 µM [falling, full curve, poor fit]
CC(C)c1ccc(/C=N/NC(=O)c2nnn(-c3nonc3N)c2CN(C)C2CCCCC2)cc1 | 19.5 |  | 
CCN1C(=NCCc2cccs2)N[C@@H](c2cccs2)C(C(=O)OC)=C1C | 1.94 | 5.17 µM [falling, single point] | 
O=C(COc1ccc(Cl)cc1)NCc1nnc(SCC(=O)N2CCCC2)o1 |  | 4.61 µM [rising, full curve] | 6.51 µM [rising, single point]
CC1CC(C)CN(S(=O)(=O)c2ccc(NC(=O)[C@@H]3CCCN3C(=O)c3cccs3)cc2)C1 (stereo partly drawn) | -21.1 | 2.31 µM [rising, partial curve, poor fit] | 
C=Cn1cc[n+](CC(=O)c2cc(C(C)(C)C)c(O)c(C(C)(C)C)c2)c1 | -0.351 |  | 
CCCN(CC(=O)Nc1ccccc1C)C(=O)Cc1c(C)nc2ccccc2c1C | 3.65 | 0.82 µM [rising, full curve, poor fit] | 2.31 µM [rising, partial curve]
CN(C)S(=O)(=O)c1ccc(S(=O)(=O)N2CCCC(C(=O)NC3CC3)C2)cc1 (stereo not drawn) | 4.78 |  | 
COC(=O)C[n+]1cccc2ccccc21 | 7.44 | 0.13 µM [falling, full curve, poor fit] | 0.13 µM [falling, full curve, poor fit]
Cc1c2cnn(-c3ccccc3)c(=O)c2c(C)n1CCCC(=O)N1CCN(c2ncccn2)CC1 | -1.49 |  | 
Cc1onc(-c2ccccc2)c1C(=O)OCC(=O)Nc1ccc(C#N)cc1 | -2.06 |  | 
Cc1c(NC(=O)COC(=O)C2(c3ccccc3F)CCCC2)c(=O)n(-c2ccccc2)n1C | -26.9 |  | 0.013 µM [falling, full curve, poor fit]
COC(=O)CCCC(=O)N1CCCC(CCC(=O)NCc2ccc(F)c(F)c2)C1 (stereo not drawn) | -10.7 | 29.1 µM [falling, single point] | 

Compound | cell number change [%] | AC50 [1] | AC50 [2]
CCC(=O)Nc1nc2cc(OC)ccc2s1 | 9.34 |  | 
COCCOC(=O)C1=C(C)NC2=C(C(=O)CC(c3cccs3)C2)C1c1ccsc1 (stereo not drawn) | 3.9 | 0.116 µM [falling, partial curve, poor fit] | 
Cc1ccc(-c2[nH]c(-c3ccccc3)nc2SCC(=O)NCC2CCCO2)cc1 (stereo not drawn) | -7.32 |  | 
Cn1c(C(=O)Nc2ccc3c(c2)OCCO3)cc2c(=O)n(C)c3ccccc3c21 |  | 1.84 µM [rising, partial curve] | 2.06 µM [rising, partial curve]
O=C(Nc1nccs1)c1ncc(Cl)c(Cl)c1Cl | -3.85 |  | 
O=S(=O)(NCCSc1nnc(-c2ccco2)n1-c1ccccc1)c1ccccc1 | 4.06 | 29.1 µM [rising, single point] | 
COc1ccc(CNC(=O)C2CCCN(c3nn4c(=O)cc(C)nc4s3)C2)cc1 (stereo not drawn) | -11.6 | 29.1 µM [rising, single point] | 
Cc1nc(N)[nH]c(=O)c1Oc1cccc(C(F)(F)F)c1 | -50.9 | 32.6 µM [falling, single point] | 29.1 µM [falling, single point]
CC1(C)CC2CC(C)(CN2S(=O)(=O)c2ccc(C(=O)Nc3cccc(S(=O)(=O)N4CCOCC4)c3)cc2)C1 (stereo not drawn) | -26.1 | 6.51 µM [falling, partial curve, poor fit] | 2.91 µM [falling, full curve, poor fit]
O=C(CCNS(=O)(=O)c1ccc(OC(F)(F)F)cc1)N1CCN(S(=O)(=O)c2cccc(F)c2)CC1 | 10.7 | 0.366 µM [falling, partial curve, poor fit] | 0.461 µM [falling, single point]
Cn1c(Oc2ccccc2NCc2cc(Br)ccc2O)cc(=O)n(C)c1=O |  | 0.731 µM [falling, full curve, poor fit] | 
O=C(Oc1ccc[nH]c1=O)c1cccc(Cl)c1 | 61.3 | 2.91 µM [falling, full curve] | 3.26 µM [rising, partial curve, poor fit]
O=C(OCC(=O)N1CCCC1)c1ccc(OC(F)(F)F)cc1 |  | 1.84 µM [falling, partial curve, poor fit] | 0.116 µM [falling, partial curve, poor fit]
CCOC(=O)C1(C)NC(c2ccccc2F)C2C(=O)N(c3cccc(C(C)=O)c3)C(=O)C21 (stereo not drawn) | 2.72 |  | 
C#CCNC(=O)C1=C[C@H](c2ccc(C(F)(F)F)cc2)C[C@H](OCCCCO)O1 | -5.27 | 1.84 µM [rising, partial curve] | 
Cc1ccc(CS(=O)(=O)c2ncc(Cl)c(C(=O)Nc3nnc(C)s3)n2)cc1 | -7.92 | 2.31 µM [falling, full curve] | 5.17 µM [falling, single point]
O=C(CSc1nccn1-c1ccccc1)NCc1ccc(F)cc1 | 9.03 |  | 5.8 µM [rising, single point]
O=C(CSc1nn(-c2ccc(Cl)cc2)c(=S)s1)N1CCN(C(=O)c2ccco2)CC1 | -27.2 |  | 
